The target in the assay is T1, GST-GGA3 (amino acids 1-316) (UniProt Q9NZ52).
T1 sequence: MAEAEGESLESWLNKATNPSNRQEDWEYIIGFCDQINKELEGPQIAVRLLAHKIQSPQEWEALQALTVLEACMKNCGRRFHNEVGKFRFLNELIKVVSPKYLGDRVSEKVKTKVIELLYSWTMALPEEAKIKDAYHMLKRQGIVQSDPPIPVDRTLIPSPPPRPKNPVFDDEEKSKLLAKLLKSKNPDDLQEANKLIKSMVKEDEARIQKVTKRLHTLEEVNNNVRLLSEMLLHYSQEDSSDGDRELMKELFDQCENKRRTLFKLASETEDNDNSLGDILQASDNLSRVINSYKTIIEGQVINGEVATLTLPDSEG
Put plainly: pull-down; 50 ug GST-GGA3 1-316 precoupled to Glutathione-Sepharose beads, 2 mg lysate of HeLa cells transduced with GFP-Rab35 wt or GFP-Rab35 R27H; 50 mM Tris-HCl pH 7.4, 150 mM NaCl, 10 mM MgCl2, 1% Triton, 0.5% deoxycholate, 0.1% SDS, 5% glycerol; 1 h at 4 °C; anti-Arf6 immunoblot; only the target purified. For orientation: A western blot detects proteins with antibodies after separation by electrophoresis.

Sequences of proteins named here, by UniProt entry; tags and fusion partners are left off.
UniProt P62330: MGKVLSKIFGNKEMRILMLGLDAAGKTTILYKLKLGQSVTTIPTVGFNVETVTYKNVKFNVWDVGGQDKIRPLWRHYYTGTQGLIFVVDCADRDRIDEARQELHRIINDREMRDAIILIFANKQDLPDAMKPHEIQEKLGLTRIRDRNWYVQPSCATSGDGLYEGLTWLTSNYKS

These are yes or no findings as the source states them, for the method shown. In cells and extracts the contact can be indirect. Some results given as binding are weak or reduced against the parent protein; the word gives no strength. Where a sequence is shown, tags or fusion partners need not be part of it.

On to Arf6 (from UniProt P62330 1-175), for which the binding entry was “binds”.

These data come from publication PMC10966776.
